In the supplement of paper PMC12259267, “Disruption of the KLHL37–N-Myc complex restores N-Myc degradation and arrests neuroblastoma growth in mouse models” (The Journal of Clinical Investigation, 2025):
Where a name gives a salt, the structure may show the parent alone. The list shows a part of the results. Most values come without repeats; read them as rough. Square brackets hold non-standard residues; d marks the D form. Peptide text beside a SMILES is read from it. * marks the point of attachment. Benzoyl(4-tBu) = CC(C)(C)c1ccc(C(=O)*)cc1; Lys(Et2) = CCN(CC)CCCC[C@H](N)C(=O)O

Tested on: SK-N-BE(2)
Assay: inhibition of N-Myc immunofluorescence signal per cell relative to control (fraction); higher = stronger N-Myc protein reduction
Conditions: 1 µM; 9 h

Compound | inhibition of N-Myc immunofluorescence signal per cell
CCn1c2ccccc2c2cc(CNCc3ccccc3OC)ccc21 [HLCL-61 (hydrochloride)] | -0.287
CCOc1cccc(OCCN(C)C)c1C(=O)Nc1ccc(Cl)c(C(F)(F)F)c1 | -0.0313
C#Cc1cccc(Nc2ncnc3cc(OC)c(OCCCCCCC(=O)NO)cc23)c1 | -0.231
CC(=O)Nc1ccc(C(=O)Nc2ccccc2N)cc1 [Tacedinaline] | 0.0181
CCC(CC)n1ccc2c(C(=O)NCc3c(C)cc(C)[nH]c3=O)cc(C#N)cc21 | 0.154
CCC[C@H](NC(=O)/C(C#N)=C/c1cccc(Br)n1)c1ccccc1 [Degrasyn] | 0.146
O=C(O)CCNc1cc(N2CCc3ccccc3CC2)nc(-c2ccccn2)n1 | -0.281
CCOC(=O)c1ccc(N2NC(=O)C(=Cc3ccc([N+](=O)[O-])o3)C2=O)cc1 | 0.0292
c1ccc(-c2ccc(CNCCNCc3ccc(-c4ccccn4)cc3)cc2)nc1 | 0.0224
O=C(CCc1ccccc1)N1CCC(O)(Cn2cnc3cc(Cl)ccc3c2=O)CC1 | -0.0262
CC(=O)Nc1ccc(C(=O)Nc2ccc(F)cc2N)cc1 | 0.00811
Nc1ccccc1NC(=O)c1cnccn1 | 0.0625
CCN(CC)CCCC[C@H](NC(=O)[C@H](CC(C)C)NC(=O)[C@H](C)NC(=O)[C@H](Cc1ccccc1)NC(=O)c1ccc(C(C)(C)C)cc1)C(=O)N[C@@H](CO)C(=O)OC ({Benzoyl(4-tBu)}-FAL[Lys(Et2)]S-OMe) | 0.141
COC(=O)c1ccc(N2CCN(C)CC2)c(NC(=O)c2cccc(OC)c2)c1 | -0.0679
COc1ccc(C2=N[C@@H](c3ccc(Cl)cc3)[C@@H](c3ccc(Cl)cc3)N2C(=O)N2CCNC(=O)C2)c(OC(C)C)c1 [Nutlin-3a] | 0.178
Cc1ncsc1-c1ccc(CNC(=O)[C@@H]2C[C@@H](O)CN2C(=O)[C@@H](NC(=O)C2(F)CC2)C(C)(C)C)c(O)c1 [VH032-cyclopropane-F] | 0.179
COc1cc2c(NC3CCN(C(C)C)CC3)nc(N3CCC(F)(F)CC3)nc2cc1OCCCN1CCCC1 | -0.0806
Cc1cnc(-c2ccccc2C(C)C)nc1NCc1ccc(-n2ccnn2)cc1 | 0.259

Individual results from the results shown.
Entry of `Cc1ncsc1-c1ccc(CNC(=O)[C@@H]2C[C@@H](O)CN2C(=O)[C@@H](NC(=O)C2(F)CC2)C(C)(C)C)c(O)c1` [VH032-cyclopropane-F] under inhibition of N-Myc immunofluorescence signal per cell: 0.179
Entry of `CCC(CC)n1ccc2c(C(=O)NCc3c(C)cc(C)[nH]c3=O)cc(C#N)cc21` under inhibition of N-Myc immunofluorescence signal per cell: 0.154

Next records follow:

Compound | inhibition of N-Myc immunofluorescence signal per cell
Nc1ccc(SCC(=O)Nc2ccc3nc(NC(=O)c4ccc(C(F)(F)F)cc4)sc3c2)cc1 [ZM223 (hydrochloride)] | 0.0142
N#Cc1nc2c(nc1C#N)-c1ccccc1/C2=N\OCc1ccccc1 | 0.177
c1cncc(-c2cn[nH]n2)c1 | 0.265
CCc1cc2c(=O)c(-c3nc4ccccc4s3)coc2c(CN2CCCCC2)c1O | -0.00635
O=C(NC[C@H](O)CN1CCc2ccccc2C1)c1ccnc(NC2CCC2)c1 | 0.0246
Cc1sc(C(=O)c2cncnc2N[C@@H]2C[C@H](COS(N)(=O)=O)[C@@H](O)C2)cc1[C@@H]1NCCc2ccc(Cl)cc21 | 0.266
CN(C)CCCCC(=O)Nc1ccc(NC(=S)NC(=O)c2ccc(C(C)(C)C)cc2)cc1 [Tenovin-6] | -0.224
Cc1c(C(=O)Nc2ccc(CN)cc2)ncnc1N1CCC(C#N)(c2ccccc2)CC1 | 0.144
COc1cc2c(cc1OC(C)C)[C@H](c1ccc(Cl)cc1)N(c1ccc(N(C)C[C@H]3CC[C@H](N4CCN(C)C(=O)C4)CC3)cc1)C(=O)C2 | 0.12
O=C(O)c1ccc(N2N=C(Cc3ccccc3)C(=Cc3ccc(-c4ccccc4F)o3)C2=O)cc1 | 0.26
NS(=O)(=O)OC[C@H]1C[C@@H](Nc2ncncc2C(=O)c2ccn(Cc3cccc(Br)c3)n2)C[C@@H]1O | 0.0528
CCOC(=O)c1[nH]c2cc(Cl)ccc2c1C(C(=O)NC(C)(C)C)N(C=O)Cc1ccc(Cl)cc1 (stereo not given) | 0.189
COC[C@H](NC(=O)c1cnc(C)s1)C(=O)N[C@@H](COC)C(=O)N[C@@H](Cc1ccccc1)C(=O)[C@@]1(C)CO1 [Oprozomib] | 0.204
CCCCCCCc1ccc(CCc2cccc(O)c2C(=O)O)cc1 | -0.153
CCCC(NC(=O)/C(C#N)=C/c1nc(Cl)ccc1Cl)c1ccc(OCCN2CCOCC2)cc1 (stereo not given) | 0.0795
Cc1cc(C)cc(C(=O)NOCCCCCC(=O)NO)c1 | -0.181
Cc1ccc(C(=O)Nc2cnc(N3CCC(C(N)=O)(N4CCCCC4)CC3)c(C(=O)O)c2)cc1 | 0.122
